Measurements reported in PubChem BioAssay AID1224830 (NIAID, 2016).
In all, the deposit lists about 18,000 reagents; this is a random part of them. About 2,900 of them (16%) count as active. 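Calls are made per well; low scores hint the gene aids the LPS response, high scores that it dampens it.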 Unmarked entries are inactive. Repeated entries: four replicate wells of each siRNA pool.

- Test: 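Regulators of TLR4 signalling towards TNF-alpha in macrophage-like cells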 (primary screen)
- System: human THP-1 monocytic leukaemia cells, TNF dual-luciferase reporter clone, PMA-differentiated to macrophage-like cells
- Reagents: siRNA pool against human genes, 50 nM
- Duration: LPS for 4 h, given about 3 days after siRNA transfection
- Conditions: bacterial LPS (TLR4 ligand), 10 ng/ml
- Detection: 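TNF firefly reporter luminescence divided by renilla, normalised to the plate median, then turned into a robust z-score for each replicate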
- Reading the numbers: TNF reporter robust z-score: higher = stronger TNF reporter response to LPS
- Active means: 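a well is active when its z-score exceeds 2.8 or falls below -1.5; control wells carry no call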

| Gene | TNF reporter robust z-score |
| --- | --- |
| TGOLN2 | 4.82 (active) |
| TGOLN2 | 2.42 |
| TGOLN2 | 3.77 (active) |
| TGOLN2 | 5.17 (active) |
| HELLS | 0.22 |
| HELLS | 0.01 |
| HELLS | -0.25 |
| HELLS | -0.1 |
| DIPK2A | -0.38 |
| DIPK2A | -0.59 |
| DIPK2A | -0.65 |
| DIPK2A | 0.91 |
| CADM1 | -0.94 |
| CADM1 | -0.75 |
| CADM1 | -0.87 |
| CADM1 | -0.89 |
| SVEP1 | -0.35 |
| SVEP1 | -0.25 |
| SVEP1 | -1.14 |
| SVEP1 | -0.76 |
| PTPRB | -0.16 |
| PTPRB | 0.15 |
| PTPRB | 1.81 |
| PTPRB | -0.27 |
| SLC38A10 | 0.31 |
| SLC38A10 | 0.76 |
| SLC38A10 | 0.43 |
| SLC38A10 | 0.95 |
| KL | -1.01 |
| KL | 0.17 |
| KL | -0.83 |
| KL | 0.06 |
| CARD6 | -0.05 |
| CARD6 | -0.65 |
| CARD6 | -0.27 |
| CARD6 | 0.69 |
| APPL2 | 2.41 |
| APPL2 | 2.93 (active) |
| APPL2 | 0.53 |
| APPL2 | 0.81 |
| ESRRB | -0.31 |
| ESRRB | 1.22 |
| ESRRB | 1.04 |
| ESRRB | 1.12 |
| DUT | 2.05 |
| DUT | 2.03 |
| DUT | 1.28 |
| DUT | 1.4 |
| KIR2DL1 | -1.27 |
| KIR2DL1 | -0.2 |
| KIR2DL1 | -0.42 |
| KIR2DL1 | -0.1 |

Next part (3 carried over from the part before).
| Gene | TNF reporter robust z-score |
| --- | --- |
| KIR2DL1 | -0.2 |
| KIR2DL1 | -0.42 |
| KIR2DL1 | -0.1 |
| RBM10 | -0.35 |
| RBM10 | -0.6 |
| RBM10 | -0.92 |
| RBM10 | -0.74 |
| IL16 | 1.56 |
| IL16 | 0.46 |
| IL16 | 1 |
| IL16 | 1.9 |
| APOBEC1 | 0.34 |
| APOBEC1 | -0.6 |
| APOBEC1 | -0.8 |
| APOBEC1 | 0.38 |
| HEXIM2 | -0.83 |
| HEXIM2 | -0.92 |
| HEXIM2 | -1.21 |
| HEXIM2 | -0.57 |
| SCAF4 | 1.47 |
| SCAF4 | 3.89 (active) |
| SCAF4 | 2.93 (active) |
| SCAF4 | 1.92 |
| GEMIN7 | -0.59 |
| GEMIN7 | -0.33 |
| GEMIN7 | -0.95 |
| GEMIN7 | -0.6 |
| SNX22 | -0.02 |
| SNX22 | -0.24 |
| SNX22 | 0.56 |
| SNX22 | 0.24 |
| ARCN1 | -1.89 (active) |
| ARCN1 | -1.66 (active) |
| ARCN1 | -1.53 (active) |
| ARCN1 | -1.9 (active) |
| ZNF35 | -0.5 |
| ZNF35 | 0.47 |
| ZNF35 | -0.9 |
| ZNF35 | -0.72 |
| PRKAR1B | 1.38 |
| PRKAR1B | 1.67 |
| PRKAR1B | 1.6 |
| PRKAR1B | 1.55 |
| CRIPTO | -0.95 |
| CRIPTO | -0.24 |
| CRIPTO | -0.64 |
| CRIPTO | 0.56 |
| PLEKHB2 | 0.04 |
| PLEKHB2 | -0.08 |
| PLEKHB2 | -0.27 |
| PLEKHB2 | 0.05 |
| KNCN | -1.57 (active) |
| KNCN | -1.72 (active) |
| KNCN | -1.58 (active) |
| KNCN | -1.51 (active) |
| DDA1 | -0.25 |
| DDA1 | -0.87 |
| DDA1 | -0.62 |
| DDA1 | -0.23 |
| VPS28 | -0.13 |
| VPS28 | -0.32 |
| VPS28 | -0.43 |
| VPS28 | -0.33 |
